Source: PubChem BioAssay AID686943 (Drosophila RNAi Screening Center, 2013)
The deposit covers about 23,000 reagents; shown is a random part of those with a known target gene and a result. 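Extra replicates exist only for a retested subset of genes; insulin dose and duration not given; both raised and lowered dpERK matter.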 Reagents against one gene are numbered here. Names joined by + are all predicted targets of the reagent. The record does not give: the amount of reagent, the time to read-out.

- Screen: 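Knockdowns that increase or decrease active ERK after insulin receptor stimulation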 (primary screen)
- Cell system: Drosophila S2R+ haemocyte-like cells expressing YFP-tagged ERK (Rolled)
- Reagent: long dsRNA against Drosophila genes
- Challenge: insulin stimulation versus unstimulated cells; dose and duration not given
- Measurement: 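Antibody staining for doubly phosphorylated ERK divided by ERK-YFP signal, as plate z-scores, in insulin-treated and untreated cells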
- Direction: replicate 1, z-score of dpERK with insulin and replicate 2, z-score of dpERK with insulin: higher = more active ERK per ERK-YFP after insulin; replicate 1, z-score of dpERK under basal conditions: higher = more basal active ERK per ERK-YFP; replicate 1, z-score of ERK-YFP with insulin: higher = more YFP-tagged ERK signal

gene,dsRNA no.,"replicate 1, z-score of dpERK with insulin","replicate 2, z-score of dpERK with insulin","replicate 1, z-score of dpERK under basal conditions","replicate 1, z-score of ERK-YFP with insulin"
alpha-PheRS (GeneID 31740),1,1.04,2,-0.33,0.38
CG3494 (GeneID 37903),1,-0.15,0.17,-0.2,0.09
CG13216 (GeneID 36181),1,-0.34,0.59,0.46,0.38
CG33116 (GeneID 326259),1,-1,-0.75,-2.68,0.42
tnc (GeneID 42990),1,-1.88,-0.92,-0.28,0.85
Spc25 (GeneID 41585),1,-1.5,-1.14,-1.23,-0.71
CG15472 (GeneID 31409),1,0.98,0.74,0.02,0.12
CG14537 (GeneID 34072),1,-0.55,0.08,0.71,-0.28
Atet (GeneID 33636),1,1.39,0.67,1.48,-0.17
Zasp52 (GeneID 36740),1,-4.14,-3.74,-2.17,-0.37
Zasp52 (GeneID 36740),2,-0.43,-0.01,-0.22,0.47
Gabat (GeneID 40188),1,0.2,-0.57,-0.4,0.26
CG32462 + asRNA:CR43426,1,0.46,-0.61,-0.59,0.26
CG43106 (GeneID 12797866),1,-0.33,0.18,-0.98,0.85
CG11041 (GeneID 37278),1,0.3,-0.65,-0.53,-0.14
mRpL51 (GeneID 34186),1,-0.32,-0.83,0.07,0.79
CG7560 (GeneID 39276),1,0.14,0.05,-1.03,0.12
rdo (GeneID 35077),1,-0.93,0.51,0.51,0.25
CG9302 (GeneID 34750),1,-0.27,0.19,0.51,0.45
Or98P (GeneID 3772262),1,-0.06,-0.26,-0.48,0.03
CG17580 (GeneID 50228),1,0.27,0.5,-0.07,0.04
CG7379 (GeneID 42140),1,0.75,0.13,-1.07,0.72
loqs (GeneID 34751),1,-0.16,0.14,-0.22,2.43

3 entries already listed, sorted by “replicate 1, z-score of dpERK with insulin”, highest first:
gene,dsRNA no.,"replicate 1, z-score of dpERK with insulin","replicate 2, z-score of dpERK with insulin","replicate 1, z-score of dpERK under basal conditions","replicate 1, z-score of ERK-YFP with insulin"
CG17580 (GeneID 50228),1,0.27,0.5,-0.07,0.04
Or98P (GeneID 3772262),1,-0.06,-0.26,-0.48,0.03
CG9302 (GeneID 34750),1,-0.27,0.19,0.51,0.45
